Reference: patent US20240254129A1, “HETEROCYCLIC COMPOUNDS AND USES THEREOF” (Kumquat Biosciences Inc., priority 2021, published 2024)

Sequences of proteins named here, by UniProt entry; tags and fusion partners are left off. Residues count along the entry.
UniProt P01116, 1-188 isoform 2: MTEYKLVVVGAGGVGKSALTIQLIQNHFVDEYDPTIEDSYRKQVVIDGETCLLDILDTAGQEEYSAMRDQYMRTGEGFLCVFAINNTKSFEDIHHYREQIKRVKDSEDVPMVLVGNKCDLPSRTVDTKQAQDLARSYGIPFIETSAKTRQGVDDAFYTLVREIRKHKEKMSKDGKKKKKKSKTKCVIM
UniProt P01116, whole entry G12D: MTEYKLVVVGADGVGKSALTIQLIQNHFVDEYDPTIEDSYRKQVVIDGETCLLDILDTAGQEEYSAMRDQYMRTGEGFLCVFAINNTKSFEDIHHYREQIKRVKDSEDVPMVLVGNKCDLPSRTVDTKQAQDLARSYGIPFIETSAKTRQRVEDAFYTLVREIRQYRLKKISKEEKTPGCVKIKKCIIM

Columns and labels:
[1] = target: GST-tagged K-Ras mutant / His-tagged hSOS1 (Homo sapiens, UniProt P01116); test: HTRF assay, K-Ras mutant / SOS1 interaction; settings: read-out: IC50 against mutant Kras; compound nos. 401-703
wildtype Kras / hSOS1 = wildtype Kras / hSOS1 (Homo sapiens, UniProt P01116); test: HTRF assay, wildtype Kras / SOS1 interaction; settings: read-out: IC50 against wildtype Kras; compound nos. 401-703

In the case of `Fc1c(N2CCc3ccccc3C2)ccc2c(N3CCCCCC3)nc(OCC34CCCN3CCC4)nc12`, the IC50 [1] is reported as > 500 nM and the IC50 (wildtype Kras / hSOS1) is reported as < 500 nM.

The structures given here were assigned with low confidence; some may be wrong.
